Assay results from publication PMC12867876.
These are yes or no findings as the source states them, for the method shown. In cells and extracts the contact can be indirect. Some results given as binding are weak or reduced against the parent protein; the word gives no strength. Tags and fused reporters may be left off the sequences shown. One block for each binder: values may come before it.

Target: T1, Flag-CREG1 (cellular repressor of E1A-stimulated genes 1) (chicken) (UniProt Q5ZJ73)
T1 sequence: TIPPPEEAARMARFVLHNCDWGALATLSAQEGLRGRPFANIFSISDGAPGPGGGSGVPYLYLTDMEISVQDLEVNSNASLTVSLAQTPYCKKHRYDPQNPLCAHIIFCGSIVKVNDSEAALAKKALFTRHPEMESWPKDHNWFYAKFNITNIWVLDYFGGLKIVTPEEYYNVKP
Experiment: co-IP; lysates (IP lysis buffer) of DF-1 cells transfected with Flag-CREG1 alone or with HA-HSPD1, with or without ALV-J infection; anti-Flag or anti-HA magnetic beads overnight at 4 °C, washed three times with lysis buffer; immunoblot

- binding: binds
B1: endogenous HSPD1 (heat shock protein family D (Hsp60) member 1) (protein, UniProt Q5ZL72 27-573)
chain: AKDVKFGADARALMLQGVDLLADAVAVTMGPKGRTVIIEQSWGSPKVTKDGVTVAKAIDLKDKYKNIGAKLVQDVANNTNEEAGDGTTTATVLARAIAKEGFEKISKGANPVEIRRGVMLAVDAITAELKKLSKPVTTPEEIAQVATISANGDQEIGNIISDAMKKVGRKGVITVKDGKTLNDELEIIEGMKFDRGYISPYFINTAKGQKCEFQDAYVLISEKKISSVQSIVPALEIANSHRKPLVIIAEDVDGEALSTLVLNRLKVGLQVVAVKAPGFGDNRKNQLKDMAIATGGAVFGEEGLSLNVEDIQPHDFGKVGEVIVTKDDTMLLKGKGEKAQIEKRIQEIIEQLEVTTSEYEKEKLNERLAKLSDGVAVLKVGGTSDVEVNEKKDRVTDALNATRAAVEEGIVPGGGCALLRCIPALDALKPANEDQKIGIEIIKRTLKIPAMTIAKNAGVEGSLIVEKILQSSSEVGYDAMLGEFVNMVEKGIIDPTKVVRTALMDAAGVASLLSTAEAVVTEVPKEEKEPAMGGMGGMGGGMGGGMF

- binding: binds
B2: HA-HSPD1 (heat shock protein family D (Hsp60) member 1) (protein, UniProt Q5ZL72 27-573)
chain: B1 chain
